The results in this text go back to patent US20250297004A1, “NECTIN-4 BINDING AGENTS” (INNATE PHARMA, priority 2022, published 2025).

These are yes or no findings as the source states them, for the method shown. Some binding calls cover weakened binding; strength is not graded here.

In this experiment the target is T1, human Nectin-4 expressed on cells (human, UniProt Q96NY8 32-510).
T1 sequence: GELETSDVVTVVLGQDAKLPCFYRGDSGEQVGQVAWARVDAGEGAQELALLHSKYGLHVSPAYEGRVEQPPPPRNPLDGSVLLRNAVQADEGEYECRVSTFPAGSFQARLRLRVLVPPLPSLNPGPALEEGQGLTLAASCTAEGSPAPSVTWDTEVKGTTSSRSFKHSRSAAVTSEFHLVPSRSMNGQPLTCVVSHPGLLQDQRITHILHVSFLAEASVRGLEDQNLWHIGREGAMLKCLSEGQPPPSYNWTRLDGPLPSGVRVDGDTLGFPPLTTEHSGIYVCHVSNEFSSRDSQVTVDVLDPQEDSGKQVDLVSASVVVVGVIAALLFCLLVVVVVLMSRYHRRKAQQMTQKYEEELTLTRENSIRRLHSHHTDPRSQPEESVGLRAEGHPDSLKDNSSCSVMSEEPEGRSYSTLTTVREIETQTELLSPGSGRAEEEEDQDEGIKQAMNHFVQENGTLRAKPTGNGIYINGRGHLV
Briefly: flow cytometry on SUM190 cells.

B1: H4L1 (antibody, human IgG1, V domains shown)
VH: QVQLVQSGAEVKKPGASVKVSCKASGYIFTSYWMHWVKQAPGQGLEWMGEIDPSDSYTNYNQKFKGRVTMTLDKSTSTTYMELSSLRSEDTAVYYCARGYGNYGDYWGQGTLVTVSS
VL: DVVMTQSPLSLPVTPGEPASISCRSSKSLLHSNGITYLYWYLQKPGQSPQLLIYQMSNLASGVPDRFSSSGSGTDFTLKISRVEAEDVGVYYCAQNLELPWTFGGGTKVEIK
notes: human IgG1 isotype
Regarding B1, the binding entry was “binds”.

B2: H5L3 (antibody, human IgG1, kappa, V domains shown)
VH: QVQLVQSGAEVKKPGASVKVSCKASGYIFTSYWMHWVKQRPGQGLEWMGEIDPSDSYTNYNQKFKGRVTMTLDKSTSTTYMELSSLRSEDTAVYYCARGYGNYGDYWGQGTLVTVSS
VL: DVVMTQSALSNPVTPGEPASISCRSSKSLLHSNGITYLYWYLQKPGQSPQLLIYQMSNLASGVPDRFSSSGSGTDFTLKISRVEAEDVGVYYCAQNLELPWTFGGGTKVEIKR
notes: Tested as human IgG1
Consider B2, for which the binding entry was “binds”.

B3: H5L1 (antibody, human IgG1, V domains shown)
VH: QVQLVQSGAEVKKPGASVKVSCKASGYIFTSYWMHWVKQRPGQGLEWMGEIDPSDSYTNYNQKFKGRVTMTLDKSTSTTYMELSSLRSEDTAVYYCARGYGNYGDYWGQGTLVTVSS
VL: DVVMTQSPLSLPVTPGEPASISCRSSKSLLHSNGITYLYWYLQKPGQSPQLLIYQMSNLASGVPDRFSSSGSGTDFTLKISRVEAEDVGVYYCAQNLELPWTFGGGTKVEIK
notes: human IgG1 isotype
Turning to B3, the binding result is “binds”.

B4: H7L2 (antibody, human IgG1, V domains shown)
VH: QVQLVQSGAEVKKPGASVKVSCKASGYIFTSYWMHWVKQRPGQGLEWIGEIDPSDSYTNYNQKFKGRVTLTLDKSTSTTYMELSSLRSEDTAVYYCARGYGNYGDYWGQGTLVTVSS
VL: DVVMTQSPLSNPVTPGEPASISCRSSKSLLHSNGITYLYWYLQKPGQSPQLLIYQMSNLASGVPDRFSSSGSGTDFTLKISRVEAEDVGVYYCAQNLELPWTFGGGTKVEIK
notes: human IgG1 isotype
As to B4, the binding result was “binds”.

B5: H7L3 (antibody, human IgG1, V domains shown)
VH: QVQLVQSGAEVKKPGASVKVSCKASGYIFTSYWMHWVKQRPGQGLEWIGEIDPSDSYTNYNQKFKGRVTLTLDKSTSTTYMELSSLRSEDTAVYYCARGYGNYGDYWGQGTLVTVSS
VL: DVVMTQSALSNPVTPGEPASISCRSSKSLLHSNGITYLYWYLQKPGQSPQLLIYQMSNLASGVPDRFSSSGSGTDFTLKISRVEAEDVGVYYCAQNLELPWTFGGGTKVEIK
notes: human IgG1 isotype
On to B5, for which the binding entry is “binds”.

B6: H0L0 (antibody, human IgG1, V domains shown)
VH: QVQLVQSGAEVKKPGASVKVSCKASGYTFTSYWMHWVRQAPGQGLEWMGEIDPSDSYTNYNQKFKGRVTMTRDTSTSTVYMELSSLRSEDTAVYYCARGYGNYGDYWGQGTLVTVSS
VL: DIVMTQSPLSLPVTPGEPASISCRSSKSLLHSNGITYLYWYLQKPGQSPQLLIYQMSNLASGVPDRFSGSGSGTDFTLKISRVEAEDVGVYYCAQNLELPWTFGGGTKVEIK
notes: human IgG1 isotype; also called HOLO; humanized 5E7 variant H0L0
For B6, the binding result is “binds”.

B7: H4L3 (antibody, human IgG1, V domains shown)
VH: QVQLVQSGAEVKKPGASVKVSCKASGYIFTSYWMHWVKQAPGQGLEWMGEIDPSDSYTNYNQKFKGRVTMTLDKSTSTTYMELSSLRSEDTAVYYCARGYGNYGDYWGQGTLVTVSS
VL: DVVMTQSALSNPVTPGEPASISCRSSKSLLHSNGITYLYWYLQKPGQSPQLLIYQMSNLASGVPDRFSSSGSGTDFTLKISRVEAEDVGVYYCAQNLELPWTFGGGTKVEIK
notes: human IgG1 isotype
In the case of B7, the binding result is “binds”.

B8: H6L3 (antibody, human IgG1, V domains shown)
VH: QVQLVQSGAEVKKPGASVKVSCKASGYIFTSYWMHWVKQRPGQGLEWIGEIDPSDSYTNYNQKFKGRVTMTLDKSTSTTYMELSSLRSEDTAVYYCARGYGNYGDYWGQGTLVTVSS
VL: DVVMTQSALSNPVTPGEPASISCRSSKSLLHSNGITYLYWYLQKPGQSPQLLIYQMSNLASGVPDRFSSSGSGTDFTLKISRVEAEDVGVYYCAQNLELPWTFGGGTKVEIK
notes: human IgG1 isotype
Regarding B8, the binding entry is recorded as “binds”.

B9: H1L0 (antibody, human IgG1, V domains shown)
VH: QVQLVQSGAEVKKPGASVKVSCKASGYTFTSYWMHWVRQAPGQGLEWMGEIDPSDSYTNYNQKFKGRVTMTLDTSTSTTYMELSSLRSEDTAVYYCARGYGNYGDYWGQGTLVTVSS
VL: DIVMTQSPLSLPVTPGEPASISCRSSKSLLHSNGITYLYWYLQKPGQSPQLLIYQMSNLASGVPDRFSGSGSGTDFTLKISRVEAEDVGVYYCAQNLELPWTFGGGTKVEIK
notes: human IgG1 isotype
Turning to B9, the binding result is “binds”.

B10: H2L0 (antibody, human IgG1, V domains shown)
VH: QVQLVQSGAEVKKPGASVKVSCKASGYTFTSYWMHWVRQAPGQGLEWMGEIDPSDSYTNYNQKFKGRVTMTLDKSTSTTYMELSSLRSEDTAVYYCARGYGNYGDYWGQGTLVTVSS
VL: DIVMTQSPLSLPVTPGEPASISCRSSKSLLHSNGITYLYWYLQKPGQSPQLLIYQMSNLASGVPDRFSGSGSGTDFTLKISRVEAEDVGVYYCAQNLELPWTFGGGTKVEIK
notes: human IgG1 isotype
B10: the binding result was “binds”.

B11: H6L1 (antibody, human IgG1, V domains shown)
VH: QVQLVQSGAEVKKPGASVKVSCKASGYIFTSYWMHWVKQRPGQGLEWIGEIDPSDSYTNYNQKFKGRVTMTLDKSTSTTYMELSSLRSEDTAVYYCARGYGNYGDYWGQGTLVTVSS
VL: DVVMTQSPLSLPVTPGEPASISCRSSKSLLHSNGITYLYWYLQKPGQSPQLLIYQMSNLASGVPDRFSSSGSGTDFTLKISRVEAEDVGVYYCAQNLELPWTFGGGTKVEIK
notes: human IgG1 isotype
For the molecule B11, the binding result is recorded as “binds”.

B12: H3L3 (antibody, human IgG1, V domains shown)
VH: QVQLVQSGAEVKKPGASVKVSCKASGYIFTSYWMHWVRQAPGQGLEWMGEIDPSDSYTNYNQKFKGRVTMTLDKSTSTTYMELSSLRSEDTAVYYCARGYGNYGDYWGQGTLVTVSS
VL: DVVMTQSALSNPVTPGEPASISCRSSKSLLHSNGITYLYWYLQKPGQSPQLLIYQMSNLASGVPDRFSSSGSGTDFTLKISRVEAEDVGVYYCAQNLELPWTFGGGTKVEIK
notes: human IgG1 isotype
Consider B12, for which the binding entry is on record as “binds”.

B13: H4L2 (antibody, human IgG1, V domains shown)
VH: QVQLVQSGAEVKKPGASVKVSCKASGYIFTSYWMHWVKQAPGQGLEWMGEIDPSDSYTNYNQKFKGRVTMTLDKSTSTTYMELSSLRSEDTAVYYCARGYGNYGDYWGQGTLVTVSS
VL: DVVMTQSPLSNPVTPGEPASISCRSSKSLLHSNGITYLYWYLQKPGQSPQLLIYQMSNLASGVPDRFSSSGSGTDFTLKISRVEAEDVGVYYCAQNLELPWTFGGGTKVEIK
notes: human IgG1 isotype
Regarding B13, the binding entry was “binds”.

B14: H7L1 (antibody, human IgG1, V domains shown)
VH: QVQLVQSGAEVKKPGASVKVSCKASGYIFTSYWMHWVKQRPGQGLEWIGEIDPSDSYTNYNQKFKGRVTLTLDKSTSTTYMELSSLRSEDTAVYYCARGYGNYGDYWGQGTLVTVSS
VL: DVVMTQSPLSLPVTPGEPASISCRSSKSLLHSNGITYLYWYLQKPGQSPQLLIYQMSNLASGVPDRFSSSGSGTDFTLKISRVEAEDVGVYYCAQNLELPWTFGGGTKVEIK
notes: human IgG1 isotype
Consider B14, for which the binding entry is listed as “binds”.

B15: H3L1 (antibody, human IgG1, V domains shown)
VH: QVQLVQSGAEVKKPGASVKVSCKASGYIFTSYWMHWVRQAPGQGLEWMGEIDPSDSYTNYNQKFKGRVTMTLDKSTSTTYMELSSLRSEDTAVYYCARGYGNYGDYWGQGTLVTVSS
VL: DVVMTQSPLSLPVTPGEPASISCRSSKSLLHSNGITYLYWYLQKPGQSPQLLIYQMSNLASGVPDRFSSSGSGTDFTLKISRVEAEDVGVYYCAQNLELPWTFGGGTKVEIK
notes: human IgG1 isotype
In the case of B15, the binding result is on record as “binds”.

B16: H5L2 (antibody, human IgG1, V domains shown)
VH: QVQLVQSGAEVKKPGASVKVSCKASGYIFTSYWMHWVKQRPGQGLEWMGEIDPSDSYTNYNQKFKGRVTMTLDKSTSTTYMELSSLRSEDTAVYYCARGYGNYGDYWGQGTLVTVSS
VL: DVVMTQSPLSNPVTPGEPASISCRSSKSLLHSNGITYLYWYLQKPGQSPQLLIYQMSNLASGVPDRFSSSGSGTDFTLKISRVEAEDVGVYYCAQNLELPWTFGGGTKVEIK
notes: human IgG1 isotype
As for B16, the binding result is listed as “binds”.

B17: H3L2 (antibody, human IgG1, V domains shown)
VH: QVQLVQSGAEVKKPGASVKVSCKASGYIFTSYWMHWVRQAPGQGLEWMGEIDPSDSYTNYNQKFKGRVTMTLDKSTSTTYMELSSLRSEDTAVYYCARGYGNYGDYWGQGTLVTVSS
VL: DVVMTQSPLSNPVTPGEPASISCRSSKSLLHSNGITYLYWYLQKPGQSPQLLIYQMSNLASGVPDRFSSSGSGTDFTLKISRVEAEDVGVYYCAQNLELPWTFGGGTKVEIK
notes: human IgG1 isotype
Turning to B17, the binding entry is recorded as “binds”.

B18: H6L2 (antibody, human IgG1, V domains shown)
VH: QVQLVQSGAEVKKPGASVKVSCKASGYIFTSYWMHWVKQRPGQGLEWIGEIDPSDSYTNYNQKFKGRVTMTLDKSTSTTYMELSSLRSEDTAVYYCARGYGNYGDYWGQGTLVTVSS
VL: DVVMTQSPLSNPVTPGEPASISCRSSKSLLHSNGITYLYWYLQKPGQSPQLLIYQMSNLASGVPDRFSSSGSGTDFTLKISRVEAEDVGVYYCAQNLELPWTFGGGTKVEIK
notes: human IgG1 isotype
B18: the binding result is “binds”.

B19: H8L1 (antibody, human IgG1, V domains shown)
VH: QVQLVQSGAEVKKPGASVKVSCKASGYIFTSYWMHWVKQAPGQGLEWIGEIDPSDSYTNYNQKFKGRVTMTLDKSTSTTYMELSSLRSEDTAVYYCARGYGNYGDYWGQGTLVTVSS
VL: DVVMTQSPLSLPVTPGEPASISCRSSKSLLHSNGITYLYWYLQKPGQSPQLLIYQMSNLASGVPDRFSSSGSGTDFTLKISRVEAEDVGVYYCAQNLELPWTFGGGTKVEIK
notes: human IgG1 isotype
Consider B19, for which the binding entry was “binds”.

B20: H3L0 (antibody, human IgG1, V domains shown)
VH: QVQLVQSGAEVKKPGASVKVSCKASGYIFTSYWMHWVRQAPGQGLEWMGEIDPSDSYTNYNQKFKGRVTMTLDKSTSTTYMELSSLRSEDTAVYYCARGYGNYGDYWGQGTLVTVSS
VL: DIVMTQSPLSLPVTPGEPASISCRSSKSLLHSNGITYLYWYLQKPGQSPQLLIYQMSNLASGVPDRFSGSGSGTDFTLKISRVEAEDVGVYYCAQNLELPWTFGGGTKVEIK
notes: human IgG1 isotype
Consider B20, for which the binding result is given as “binds”.
